# According to the supplement of paper PMC8728848:
# The list shows a part of the results.
# Tests used:
# Assay in all cases: glycan array binding signal (z-score within array); higher = stronger binding
# Conditions in all cases: glycan notation: IUPAC condensed, linker removed; mutation: Q318A
# [1] = target: Gal(b1-4)GlcNAc(b1-3)Gal(b1-4)GlcNAc(b1-3)Gal(b1-4)GlcNAc(b1-3)Gal(b1-4)GlcNAc(b1-2)Man(a1-3)[Gal(b1-4)GlcNAc(b1-3)Gal(b1-4)GlcNAc(b1-3)Gal(b1-4)GlcNAc(b1-3)Gal(b1-4)GlcNAc(b1-2)Man(a1-6)]Man(b1-4)GlcNAc(b1-4)GlcNAc
# In short: (§1)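 Columns mapping to the same glycan were averaged after glycan names were converted to IUPAC-condensed notation. The data come from 3228 arrays in the Consortium for Functional Glycomics database, limited to those with an available protein sequence. Binding is reported as a within-array Z-score averaged across arrays of one protein sequence and across linkers.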
# [2] = target: Gal(b1-4)GlcNAc(b1-3)Gal(b1-4)GlcNAc(b1-3)Gal(b1-4)GlcNAc(b1-3)Gal(b1-4)GlcNAc(b1-2)Man(a1-3)[Gal(b1-4)GlcNAc(b1-3)Gal(b1-4)GlcNAc(b1-3)Gal(b1-4)GlcNAc(b1-3)Gal(b1-4)GlcNAc(b1-2)Man(a1-6)]Man(b1-4)GlcNAc(b1-4)[Fuc(a1-6)]GlcNAc
# In short: as §1
# [3] = target: Gal(b1-4)GlcNAc(b1-3)Gal(b1-4)GlcNAc(b1-3)Gal(b1-4)GlcNAc(b1-3)Gal(b1-4)GlcNAc(b1-2)[Gal(b1-4)GlcNAc(b1-3)Gal(b1-4)GlcNAc(b1-3)Gal(b1-4)GlcNAc(b1-3)Gal(b1-4)GlcNAc(b1-6)]Man(a1-6)[Gal(b1-4)GlcNAc(b1-3)Gal(b1-4)GlcNAc(b1-3)Gal(b1-4)GlcNAc(b1-3)Gal(b1-4)GlcNAc(b1-2)Man(a1-3)]Man(b1-4)GlcNAc(b1-4)[Fuc(a1-6)]GlcNAc
# In short: as §1
# [4] = target: Gal(b1-4)GlcNAc(b1-3)Gal(b1-4)GlcNAc(b1-3)Gal(b1-4)GlcNAc(b1-3)Gal(b1-4)GlcNAc(b1-3)Gal(b1-4)GlcNAc(b1-2)Man(a1-3)[Gal(b1-4)GlcNAc(b1-3)Gal(b1-4)GlcNAc(b1-3)Gal(b1-4)GlcNAc(b1-3)Gal(b1-4)GlcNAc(b1-3)Gal(b1-4)GlcNAc(b1-2)Man(a1-6)]Man(b1-4)GlcNAc(b1-4)GlcNAc
# In short: as §1
# [5] = target: Gal(b1-4)GlcNAc(b1-3)Gal(b1-4)GlcNAc(b1-3)Gal(b1-4)GlcNAc(b1-3)Gal(b1-4)GlcNAc(b1-3)Gal(b1-4)GlcNAc(b1-2)Man(a1-3)[Gal(b1-4)GlcNAc(b1-3)Gal(b1-4)GlcNAc(b1-3)Gal(b1-4)GlcNAc(b1-3)Gal(b1-4)GlcNAc(b1-3)Gal(b1-4)GlcNAc(b1-2)Man(a1-6)]Man(b1-4)GlcNAc(b1-4)[Fuc(a1-6)]GlcNAc
# In short: as §1
# [6] = target: Gal(b1-4)GlcNAc(b1-3)Gal(b1-4)GlcNAc(b1-3)Gal(b1-4)GlcNAc(b1-3)Gal(b1-4)GlcNAc(b1-3)Gal(b1-4)GlcNAc(b1-2)[Gal(b1-4)GlcNAc(b1-3)Gal(b1-4)GlcNAc(b1-3)Gal(b1-4)GlcNAc(b1-3)Gal(b1-4)GlcNAc(b1-3)Gal(b1-4)GlcNAc(b1-6)]Man(a1-6)[Gal(b1-4)GlcNAc(b1-3)Gal(b1-4)GlcNAc(b1-3)Gal(b1-4)GlcNAc(b1-3)Gal(b1-4)GlcNAc(b1-3)Gal(b1-4)GlcNAc(b1-2)Man(a1-3)]Man(b1-4)GlcNAc(b1-4)[Fuc(a1-6)]GlcNAc
# In short: as §1
# [7] = target: Gal(b1-4)GlcNAc(b1-3)Gal(b1-4)GlcNAc(b1-3)Gal(b1-4)GlcNAc(b1-3)Gal(b1-4)GlcNAc(b1-3)Gal(b1-4)GlcNAc(b1-3)Gal(b1-4)GlcNAc(b1-2)Man(a1-3)[Gal(b1-4)GlcNAc(b1-3)Gal(b1-4)GlcNAc(b1-3)Gal(b1-4)GlcNAc(b1-3)Gal(b1-4)GlcNAc(b1-3)Gal(b1-4)GlcNAc(b1-3)Gal(b1-4)GlcNAc(b1-2)Man(a1-6)]Man(b1-4)GlcNAc(b1-4)GlcNAc
# In short: as §1
# [8] = target: Gal(b1-4)GlcNAc(b1-3)Gal(b1-4)GlcNAc(b1-3)GalNAc
# In short: as §1
# [9] = target: Gal(b1-4)GlcNAc(b1-3)Gal(b1-4)GlcNAc(b1-3)[Gal(b1-4)GlcNAc(b1-3)Gal(b1-4)GlcNAc(b1-6)]GalNAc
# In short: as §1
# [10] = target: Gal(b1-4)GlcNAc(b1-3)Gal(b1-4)GlcNAc(b1-6)[Gal(b1-3)]GalNAc
# In short: as §1
# [11] = target: Gal(b1-4)GlcNAc(b1-3)Gal(b1-4)[Fuc(a1-3)]GlcNAc(b1-3)Gal(b1-4)[Fuc(a1-3)]GlcNAc
# In short: as §1
# [12] = target: Gal(b1-4)GlcNAc(b1-3)GalNAc
# In short: as §1
# [13] = target: Gal(b1-4)GlcNAc(b1-3)[Fuc(a1-3)GlcNAc(b1-6)]Gal(b1-4)Glc
# In short: as §1
# [14] = target: Gal(b1-4)GlcNAc(b1-3)[Gal(b1-4)GlcNAc(b1-6)]Gal(b1-4)GlcNAc
# In short: as §1
# [15] = target: Gal(b1-4)GlcNAc(b1-3)[GlcNAc(b1-6)]Gal(b1-4)GlcNAc
# In short: as §1
# [16] = target: Gal(b1-4)GlcNAc(b1-6)Gal(b1-4)GlcNAc
# In short: as §1
# [17] = target: Gal(b1-4)GlcNAc(b1-6)GalNAc
# In short: as §1
# [18] = target: Gal(b1-4)GlcNAc(b1-6)[Gal(b1-3)]GalNAc
# In short: as §1
# [19] = target: Gal(b1-4)GlcNAc(b1-6)[Gal(b1-4)GlcNAc(b1-3)]GalNAc
# In short: as §1
# Gal(b1-4)GlcNAc6P = target: Gal(b1-4)GlcNAc6P
# In short: as §1
# Gal(b1-6)Gal = target: Gal(b1-6)Gal
# In short: as §1
# Gal3S(b1-3)GalNAc = target: Gal3S(b1-3)GalNAc
# In short: as §1
# Gal3S(b1-3)GlcNAc = target: Gal3S(b1-3)GlcNAc
# In short: as §1
# [20] = target: Gal3S(b1-3)[Fuc(a1-4)]GlcNAc
# In short: as §1
# Gal3S(b1-4)Glc = target: Gal3S(b1-4)Glc
# In short: as §1
# Gal3S(b1-4)Glc6S = target: Gal3S(b1-4)Glc6S
# In short: as §1
# Gal3S(b1-4)GlcNAc = target: Gal3S(b1-4)GlcNAc
# In short: as §1
# [21] = target: Gal3S(b1-4)[Fuc(a1-3)]Glc6S
# In short: as §1
# [22] = target: Gal3S(b1-4)[Fuc(a1-3)]GlcNAc
# In short: as §1
# [23] = target: Gal3S(b1-4)[Fuc(a1-3)]GlcNAc6S
# In short: as §1
# Gal3S4S(b1-4)GlcNAc = target: Gal3S4S(b1-4)GlcNAc
# In short: as §1
# Gal3S6S(b1-4)GlcNAc = target: Gal3S6S(b1-4)GlcNAc
# In short: as §1
# Gal3S6S(b1-4)GlcNAc6S = target: Gal3S6S(b1-4)GlcNAc6S
# In short: as §1
# Gal4S(b1-4)GlcNAc = target: Gal4S(b1-4)GlcNAc
# In short: as §1
# Gal4S6S(b1-4)GlcNAc = target: Gal4S6S(b1-4)GlcNAc
# In short: as §1
# Gal6P(b1-4)GlcNAc = target: Gal6P(b1-4)GlcNAc
# In short: as §1
# Gal6S(b1-3)GlcNAc = target: Gal6S(b1-3)GlcNAc
# In short: as §1
# Gal6S(b1-3)GlcNAc6S = target: Gal6S(b1-3)GlcNAc6S
# In short: as §1
binder,measurement,setting,value
"SUN4 (Saccharomyces cerevisiae), P53616 (protein) MGSSHHHHHHSSGLVPRGSHNGSIYGDLADFSGPYEKFEDGTIPCGQFPSGQGVIPISWLDEGGWSGVENTDTSTGGSCKEGSYCSYACQPGMSKTQWPSDQPSDGRSIGGLLCKDGYLYRSNTDTDYLCEWGVDAAYVVSELSNDVAICRTDYPGTENMVIPTYVQAGDSLPLTVVDQDTYYTWQGLKTSAAYYVNNAGISVEDACVWGSSSSGVGNWAPLNFGAGSSDGVAYLSLIPNPNNGNALNFNVKIVAADDSSTVNGECIYENGSFSGGSDGCTVSVTAGKAKFVLYN",glycan array binding signal (z-score),[1],-0.029
same,glycan array binding signal (z-score),[2],1.5
same,glycan array binding signal (z-score),[3],0.027
same,glycan array binding signal (z-score),[4],1.28
same,glycan array binding signal (z-score),[5],2.04
same,glycan array binding signal (z-score),[6],0.936
same,glycan array binding signal (z-score),[7],0.524
same,glycan array binding signal (z-score),[8],0.366
same,glycan array binding signal (z-score),[9],-0.273
same,glycan array binding signal (z-score),[10],0.13
same,glycan array binding signal (z-score),[11],0.316
same,glycan array binding signal (z-score),[12],-0.472
same,glycan array binding signal (z-score),[13],0.019
same,glycan array binding signal (z-score),[14],0.278
same,glycan array binding signal (z-score),[15],-0.193
same,glycan array binding signal (z-score),[16],-0.572
same,glycan array binding signal (z-score),[17],0.431
same,glycan array binding signal (z-score),[18],-0.548
same,glycan array binding signal (z-score),[19],0.195
same,glycan array binding signal (z-score),Gal(b1-4)GlcNAc6P,0.216
same,glycan array binding signal (z-score),Gal(b1-6)Gal,-0.873
same,glycan array binding signal (z-score),Gal3S(b1-3)GalNAc,-1.22
same,glycan array binding signal (z-score),Gal3S(b1-3)GlcNAc,0.444
same,glycan array binding signal (z-score),[20],0
same,glycan array binding signal (z-score),Gal3S(b1-4)Glc,0.539
same,glycan array binding signal (z-score),Gal3S(b1-4)Glc6S,0.465
same,glycan array binding signal (z-score),Gal3S(b1-4)GlcNAc,0.228
same,glycan array binding signal (z-score),[21],-0.254
same,glycan array binding signal (z-score),[22],0.614
same,glycan array binding signal (z-score),[23],1.28
same,glycan array binding signal (z-score),Gal3S4S(b1-4)GlcNAc,-0.608
same,glycan array binding signal (z-score),Gal3S6S(b1-4)GlcNAc,-0.478
same,glycan array binding signal (z-score),Gal3S6S(b1-4)GlcNAc6S,-0.016
same,glycan array binding signal (z-score),Gal4S(b1-4)GlcNAc,-0.432
same,glycan array binding signal (z-score),Gal4S6S(b1-4)GlcNAc,0.261
same,glycan array binding signal (z-score),Gal6P(b1-4)GlcNAc,-0.125
same,glycan array binding signal (z-score),Gal6S(b1-3)GlcNAc,0.725
same,glycan array binding signal (z-score),Gal6S(b1-3)GlcNAc6S,-0.115

# An excerpt of the results above, for reference:
binder,measurement,setting,value
"SUN4 (Saccharomyces cerevisiae), P53616 (protein) MGSSHHHHHHSSGLVPRGSHNGSIYGDLADFSGPYEKFEDGTIPCGQFPSGQGVIPISWLDEGGWSGVENTDTSTGGSCKEGSYCSYACQPGMSKTQWPSDQPSDGRSIGGLLCKDGYLYRSNTDTDYLCEWGVDAAYVVSELSNDVAICRTDYPGTENMVIPTYVQAGDSLPLTVVDQDTYYTWQGLKTSAAYYVNNAGISVEDACVWGSSSSGVGNWAPLNFGAGSSDGVAYLSLIPNPNNGNALNFNVKIVAADDSSTVNGECIYENGSFSGGSDGCTVSVTAGKAKFVLYN",glycan array binding signal (z-score),[12],-0.472
same,glycan array binding signal (z-score),[13],0.019
same,glycan array binding signal (z-score),[14],0.278
same,glycan array binding signal (z-score),[15],-0.193
same,glycan array binding signal (z-score),[16],-0.572
same,glycan array binding signal (z-score),[17],0.431
same,glycan array binding signal (z-score),[18],-0.548
same,glycan array binding signal (z-score),[19],0.195
same,glycan array binding signal (z-score),Gal(b1-4)GlcNAc6P,0.216
same,glycan array binding signal (z-score),Gal(b1-6)Gal,-0.873
